Results are given in words; binding and its absence hold for the method and conditions named. Some entries that bind do so weakly or less than the wild type.
Key:
C3d, P01024 [1] = assay: ELISA; competition: C3b or C3dg (methods; C3d in results) 5 µg/ml immobilised; constant CFHR2 (5 µg/ml, 0.07 µM) and increasing factor H (5–50 µg/ml, 0.033–0.33 µM); factor H detected with factor H/1-4 antiserum, CFHR2 with mAb A72; both purified; conditions: remark: other sources report otherwise
C3d, P01024 [2] = assay: ELISA; competition: C3b or C3dg (methods; C3d in results) 5 µg/ml immobilised; constant factor H (10 µg/ml, 0.07 µM) and increasing CFHR2 (2.5–40 µg/ml, 0.035–0.56 µM); factor H detected with factor H/1-4 antiserum, CFHR2 with mAb A72; both purified; conditions: remark: other sources report otherwise

B1: Factor H, P08603 19-1231 (protein)
chain: EDCNELPPRRNTEILTGSWSDQTYPEGTQAIYKCRPGYRSLGNVIMVCRKGEWVALNPLRKCQKRPCGHPGDTPFGTFTLTGGNVFEYGVKAVYTCNEGYQLLGEINYRECDTDGWTNDIPICEVVKCLPVTAPENGKIVSSAMEPDREYHFGQAVRFVCNSGYKIEGDEEMHCSDDGFWSKEKPKCVEISCKSPDVINGSPISQKIIYKENERFQYKCNMGYEYSERGDAVCTESGWRPLPSCEEKSCDNPYIPNGDYSPLRIKHRTGDEITYQCRNGFYPATRGNTAKCTSTGWIPAPRCTLKPCDYPDIKHGGLYHENMRRPYFPVAVGKYYSYYCDEHFETPSGSYWDHIHCTQDGWSPAVPCLRKCYFPYLENGYNQNYGRKFVQGKSIDVACHPGYALPKAQTTVTCMENGWSPTPRCIRVKTCSKSSIDIENGFISESQYTYALKEKAKYQCKLGYVTADGETSGSITCGKDGWSAQPTCIKSCDIPVFMNARTKNDFTWFKLNDTLDYECHDGYESNTGSTTGSIVCGYNGWSDLPICYERECELPKIDVHLVPDRKKDQYKVGEVLKFSCKPGFTIVGPNSVQCYHFGLSPDLPICKEQVQSCGPPPELLNGNVKEKTKEEYGHSEVVEYYCNPRFLMKGPNKIQCVDGEWTTLPVCIVEESTCGDIPELEHGWAQLSSPPYYYGDSVEFNCSESFTMIGHRSITCIHGVWTQLPQCVAIDKLKKCKSSNLIILEEHLKNKKEFDHNSNIRYRCRGKEGWIHTVCINGRWDPEVNCSMAQIQLCPPPPQIPNSHNMTTTLNYRDGEKVSVLCQENYLIQEGEEITCKDGRWQSIPLCVEKIPCSQPPQIEHGTINSSRSSQESYAHGTKLSYTCEGGFRISEENETTCYMGKWSSPPQCEGLPCKSPPEISHGVVAHMSDSYQYGEEVTYKCFEGFGIDGPAIAKCLGEKWSHPPSCIKTDCLSLPSFENAIPMGEKKDVYKAGEQVTYTCATYYKMDGASNVTCINSRWTGRPTCRDTSCVNPPTVQNAYIVSRQMSKYPSGERVRYQCRSPYEMFGDEEVMCLNGNWTEPPQCKDSTGKCGPPPPIDNGDITSFPLSVYAPASSVEYQCQNLYQLEGNKRITCRNGQWSEPPKCLHPCVISREIMENYNIALRWTAKQKLYSRTGESVEFVCKRGYRLSSRSHTLRTTCWDGKLEYPTCAKR
C3d, P01024 [1]
  binding: binds
C3d, P01024 [2]
  binding: binds

Reference: PMC3832495
